Results: article PMC8562486
Results are given in words; binding and its absence hold for the method and conditions named. Binding seen in cells or lysates may run through a third protein. A yes stands for co-enrichment or nearness to the bait. Other partners may have been found.

Amino acid sequences for entries named in this document (tags omitted). A change or cut given only in a name is not applied to a line headed by its entry. Chains listed by the source or under a name are the forms on record and can include a tag or linker.
UniProt Q9QR71: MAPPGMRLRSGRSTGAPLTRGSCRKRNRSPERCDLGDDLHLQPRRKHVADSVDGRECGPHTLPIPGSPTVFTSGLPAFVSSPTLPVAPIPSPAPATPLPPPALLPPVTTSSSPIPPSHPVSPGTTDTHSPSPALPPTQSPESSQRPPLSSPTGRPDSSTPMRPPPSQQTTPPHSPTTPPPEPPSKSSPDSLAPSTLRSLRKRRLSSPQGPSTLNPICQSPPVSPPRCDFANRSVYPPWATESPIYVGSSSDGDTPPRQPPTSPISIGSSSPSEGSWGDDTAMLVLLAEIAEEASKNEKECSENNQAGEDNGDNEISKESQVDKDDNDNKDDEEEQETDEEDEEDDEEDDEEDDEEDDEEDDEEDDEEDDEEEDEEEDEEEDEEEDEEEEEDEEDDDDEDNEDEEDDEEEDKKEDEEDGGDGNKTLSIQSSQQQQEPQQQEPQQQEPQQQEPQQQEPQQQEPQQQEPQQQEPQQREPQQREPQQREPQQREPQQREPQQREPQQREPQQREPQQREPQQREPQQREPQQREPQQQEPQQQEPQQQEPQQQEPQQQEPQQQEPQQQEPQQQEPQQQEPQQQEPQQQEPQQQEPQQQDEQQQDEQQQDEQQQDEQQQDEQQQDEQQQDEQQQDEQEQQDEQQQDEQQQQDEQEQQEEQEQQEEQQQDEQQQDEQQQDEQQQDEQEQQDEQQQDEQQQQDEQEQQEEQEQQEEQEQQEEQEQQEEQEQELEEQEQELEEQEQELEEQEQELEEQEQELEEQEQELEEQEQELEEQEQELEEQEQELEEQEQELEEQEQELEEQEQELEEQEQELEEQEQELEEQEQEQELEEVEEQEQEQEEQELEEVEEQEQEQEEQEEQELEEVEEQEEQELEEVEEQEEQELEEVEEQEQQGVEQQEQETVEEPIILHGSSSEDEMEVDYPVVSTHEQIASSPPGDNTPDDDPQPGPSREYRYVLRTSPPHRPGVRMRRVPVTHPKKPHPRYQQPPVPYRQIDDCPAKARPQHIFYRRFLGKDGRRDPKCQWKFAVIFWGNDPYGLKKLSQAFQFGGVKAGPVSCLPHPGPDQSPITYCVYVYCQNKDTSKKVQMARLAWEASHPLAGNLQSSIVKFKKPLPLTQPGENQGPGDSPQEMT
UniProt P06733: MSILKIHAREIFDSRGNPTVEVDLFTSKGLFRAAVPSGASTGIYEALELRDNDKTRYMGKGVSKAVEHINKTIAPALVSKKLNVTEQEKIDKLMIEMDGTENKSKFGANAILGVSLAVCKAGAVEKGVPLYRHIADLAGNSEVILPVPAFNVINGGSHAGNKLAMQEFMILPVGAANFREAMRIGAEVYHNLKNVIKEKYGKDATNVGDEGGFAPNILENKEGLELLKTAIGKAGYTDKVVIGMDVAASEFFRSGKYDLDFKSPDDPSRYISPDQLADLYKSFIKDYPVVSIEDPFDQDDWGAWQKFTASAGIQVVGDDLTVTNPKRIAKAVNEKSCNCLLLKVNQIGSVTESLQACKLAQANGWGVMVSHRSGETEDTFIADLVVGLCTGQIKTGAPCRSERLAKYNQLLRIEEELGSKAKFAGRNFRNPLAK
UniProt P60953: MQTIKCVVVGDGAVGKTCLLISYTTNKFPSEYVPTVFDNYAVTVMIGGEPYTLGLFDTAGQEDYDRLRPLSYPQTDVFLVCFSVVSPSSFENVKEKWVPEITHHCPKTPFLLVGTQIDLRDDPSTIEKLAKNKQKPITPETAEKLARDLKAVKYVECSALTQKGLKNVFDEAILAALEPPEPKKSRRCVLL
UniProt P15311: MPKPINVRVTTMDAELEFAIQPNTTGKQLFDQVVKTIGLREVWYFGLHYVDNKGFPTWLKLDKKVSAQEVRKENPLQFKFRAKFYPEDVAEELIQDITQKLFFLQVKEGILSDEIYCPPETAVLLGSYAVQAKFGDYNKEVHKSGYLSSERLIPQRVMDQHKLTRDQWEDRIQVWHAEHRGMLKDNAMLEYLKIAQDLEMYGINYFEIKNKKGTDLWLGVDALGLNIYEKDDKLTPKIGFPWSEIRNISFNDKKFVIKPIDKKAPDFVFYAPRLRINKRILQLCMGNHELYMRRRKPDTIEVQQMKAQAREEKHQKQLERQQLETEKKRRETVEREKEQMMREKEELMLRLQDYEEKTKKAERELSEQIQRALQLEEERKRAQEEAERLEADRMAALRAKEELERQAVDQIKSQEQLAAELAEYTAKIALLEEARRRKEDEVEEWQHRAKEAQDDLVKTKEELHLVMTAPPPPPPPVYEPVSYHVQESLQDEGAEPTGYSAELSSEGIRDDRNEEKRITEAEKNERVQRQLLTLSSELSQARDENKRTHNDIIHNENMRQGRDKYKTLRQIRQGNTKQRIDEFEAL
Heterogeneous nuclear ribonucleoprotein U isoform B (Q00839-2, form named): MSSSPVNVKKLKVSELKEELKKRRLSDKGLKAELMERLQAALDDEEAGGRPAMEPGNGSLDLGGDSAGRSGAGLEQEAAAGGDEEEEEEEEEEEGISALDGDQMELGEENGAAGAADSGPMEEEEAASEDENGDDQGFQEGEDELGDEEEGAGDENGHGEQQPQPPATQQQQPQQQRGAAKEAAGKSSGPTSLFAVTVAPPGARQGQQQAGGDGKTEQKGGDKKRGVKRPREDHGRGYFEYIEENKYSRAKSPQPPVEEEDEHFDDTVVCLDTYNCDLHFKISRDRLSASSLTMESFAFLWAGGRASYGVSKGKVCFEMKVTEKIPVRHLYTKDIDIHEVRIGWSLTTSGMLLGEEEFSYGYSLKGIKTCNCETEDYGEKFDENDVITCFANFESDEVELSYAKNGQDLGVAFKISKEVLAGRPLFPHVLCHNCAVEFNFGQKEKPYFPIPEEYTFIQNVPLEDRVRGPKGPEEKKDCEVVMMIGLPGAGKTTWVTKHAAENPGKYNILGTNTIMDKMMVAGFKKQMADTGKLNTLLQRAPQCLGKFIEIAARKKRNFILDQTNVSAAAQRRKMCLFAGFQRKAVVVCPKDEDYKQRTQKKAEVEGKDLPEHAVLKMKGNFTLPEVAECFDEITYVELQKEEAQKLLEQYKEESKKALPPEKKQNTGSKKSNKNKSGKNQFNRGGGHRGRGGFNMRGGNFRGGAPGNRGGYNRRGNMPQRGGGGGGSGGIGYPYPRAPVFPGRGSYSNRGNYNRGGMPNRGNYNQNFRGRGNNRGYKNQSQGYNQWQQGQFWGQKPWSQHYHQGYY
UniProt P67809: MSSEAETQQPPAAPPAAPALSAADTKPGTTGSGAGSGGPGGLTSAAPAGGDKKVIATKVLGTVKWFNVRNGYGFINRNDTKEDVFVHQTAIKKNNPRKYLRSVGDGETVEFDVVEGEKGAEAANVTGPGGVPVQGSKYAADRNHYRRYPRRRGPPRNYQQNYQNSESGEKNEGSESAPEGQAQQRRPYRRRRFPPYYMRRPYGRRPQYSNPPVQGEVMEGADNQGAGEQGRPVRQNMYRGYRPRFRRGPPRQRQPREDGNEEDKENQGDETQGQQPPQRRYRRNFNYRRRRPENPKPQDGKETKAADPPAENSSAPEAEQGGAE
UniProt P11940: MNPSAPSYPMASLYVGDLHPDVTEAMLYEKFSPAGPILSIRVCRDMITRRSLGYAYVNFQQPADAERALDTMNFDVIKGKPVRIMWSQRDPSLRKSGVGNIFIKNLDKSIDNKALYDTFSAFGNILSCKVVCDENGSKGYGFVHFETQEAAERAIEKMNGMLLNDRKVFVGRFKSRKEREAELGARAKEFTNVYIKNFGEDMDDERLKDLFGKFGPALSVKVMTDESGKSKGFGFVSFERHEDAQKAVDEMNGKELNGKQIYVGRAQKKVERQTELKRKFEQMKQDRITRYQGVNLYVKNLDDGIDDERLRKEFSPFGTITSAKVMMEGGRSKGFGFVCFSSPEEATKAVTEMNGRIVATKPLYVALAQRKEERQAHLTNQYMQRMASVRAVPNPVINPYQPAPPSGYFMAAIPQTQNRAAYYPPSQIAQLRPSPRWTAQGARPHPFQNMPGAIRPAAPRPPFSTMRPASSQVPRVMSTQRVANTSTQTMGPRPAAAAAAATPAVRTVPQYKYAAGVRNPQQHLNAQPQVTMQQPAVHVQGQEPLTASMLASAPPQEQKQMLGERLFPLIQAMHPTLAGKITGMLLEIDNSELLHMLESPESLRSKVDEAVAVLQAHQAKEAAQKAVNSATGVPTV

Target: YFP-LANA^WT-Flag (wild-type latency-associated nuclear antigen) (Kaposi's sarcoma-associated herpesvirus (KSHV)) (UniProt Q9QR71)
Test: affinity purification with mass spectrometry

Row | Molecule | binding
1 | Alpha-enolase isoform 1 (from UniProt P06733 1-434) | binds
2 | Cell division control protein 42 homolog isoform 1 precursor (from UniProt P60953 1-191) | binds
3 | Ezrin (from UniProt P15311 1-586) | binds
4 | Heterogeneous nuclear ribonucleoprotein U isoform B (from UniProt Q00839-2 1-806) | binds
5 | Nuclease-sensitive element-binding protein 1 (from UniProt P67809 1-324) | binds
6 | Polyadenylate-binding protein 1 (from UniProt P11940 1-636) | binds
7 | T-complex protein 1 subunit beta isoform 1 (protein, UniProt P78371 1-535) MASLSLAPVNIFKAGADEERAETARLTSFIGAIAIGDLVKSTLGPKGMDKILLSSGRDASLMVTNDGATILKNIGVDNPAAKVLVDMSRVQDDEVGDGTTSVTVLAAELLREAESLIAKKIHPQTIIAGWREATKAAREALLSSAVDHGSDEVKFRQDLMNIAGTTLSSKLLTHHKDHFTKLAVEAVLRLKGSGNLEAIHIIKKLGGSLADSYLDEGFLLDKKIGVNQPKRIENAKILIANTGMDTDKIKIFGSRVRVDSTAKVAEIEHAEKEKMKEKVERILKHGINCFINRQLIYNYPEQLFGAAGVMAIEHADFAGVERLALVTGGEIASTFDHPELVKLGSCKLIEEVMIGEDKLIHFSGVALGEACTIVLRGATQQILDEAERSLHDALCVLAQTVKDSRTVYGGGCSEMLMAHAVTQLANRTPGKEAVAMESYAKALRMLPTIIADNAGYDSADLVAQLRAAHSEGNTTAGLDMREGTIGDMAILGITESFQVKRQVLLSAAEAAEVILRVDNIIKAAPRKRVPDHHPC | binds
8 | Transketolase isoform 1 (protein, UniProt P29401 1-623) MESYHKPDQQKLQALKDTANRLRISSIQATTAAGSGHPTSCCSAAEIMAVLFFHTMRYKSQDPRNPHNDRFVLSKGHAAPILYAVWAEAGFLAEAELLNLRKISSDLDGHPVPKQAFTDVATGSLGQGLGAACGMAYTGKYFDKASYRVYCLLGDGELSEGSVWEAMAFASIYKLDNLVAILDINRLGQSDPAPLQHQMDIYQKRCEAFGWHAIIVDGHSVEELCKAFGQAKHQPTAIIAKTFKGRGITGVEDKESWHGKPLPKNMAEQIIQEIYSQIQSKKKILATPPQEDAPSVDIANIRMPSLPSYKVGDKIATRKAYGQALAKLGHASDRIIALDGDTKNSTFSEIFKKEHPDRFIECYIAEQNMVSIAVGCATRNRTVPFCSTFAAFFTRAFDQIRMAAISESNINLCGSHCGVSIGEDGPSQMALEDLAMFRSVPTSTVFYPSDGVATEKAVELAANTKGICFIRTSRPENAIIYNNNEDFQVGQAKVVLKSKDDQVTVIGAGVTLHEALAAAELLKKEKINIRVLDPFTIKPLDRKLILDSARATKGRILTVEDHYYEGGIGEAVSSAVVGEPGITVTHLAVNRVPRSGKPAELLKMFGIDRDAIAQAVRGLITKA | binds
9 | Serpin H1 precursor (protein, UniProt P50454 19-418) AEVKKPAAAAAPGTAEKLSPKAATLAERSAGLAFSLYQAMAKDQAVENILVSPVVVASSLGLVSLGGKATTASQAKAVLSAEQLRDEEVHAGLGELLRSLSNSTARNVTWKLGSRLYGPSSVSFADDFVRSSKQHYNCEHSKINFRDKRSALQSINEWAAQTTDGKLPEVTKDVERTDGALLVNAMFFKPHWDEKFHHKMVDNRGFMVTRSYTVGVMMMHRTGLYNYYDDEKEKLQIVEMPLAHKLSSLIILMPHHVEPLERLEKLLTKEQLKIWMGKMQKKAVAISLPKGVVEVTHDLQKHLAGLGLTEAIDKNKADLSRMSGKKDLYLASVFHATAFELDTDGNPFDQDIYGREELRSPKLFYADHPFIFLVRDTQSGSLLFIGRLVRPKGDKMRDEL | binds
